Laboratory results: PubChem BioAssay AID1259425 (University of Nebraska Medical Center, 2018)
This is an unselected part of about 14,000 deposited reagents. Further read-outs or replicates are left out here. Not given: the time to read-out.

- Screen: 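Find knockdowns that reproduce the gene expression pattern seen when KSR1 is lost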 (primary screen)
- Cell system: HCT116 human colon cancer cells
- Reagent: siRNA pool against human genes, 50 nM siRNA
- Measured: 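After 50 nM siRNA pool, branched-DNA assay measures six marker transcripts per well, minus blank, normalised to the geometric mean of two housekeeping transcripts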
- Reading the numbers: BNIP3L mRNA: higher = more BNIP3L transcript after knockdown; NDRG1 mRNA: higher = more NDRG1 transcript after knockdown; BNIP3 mRNA: higher = more BNIP3 transcript after knockdown; ALDOC mRNA: higher = more ALDOC transcript after knockdown

| gene | BNIP3L mRNA, set 1 | NDRG1 mRNA, set 1 | BNIP3 mRNA, set 1 | ALDOC mRNA, set 1 |
| --- | --- | --- | --- | --- |
| SPTA1 (spectrin alpha, erythrocytic 1) | 0.116 | 0.199 | 0.225 | 0.0182 |
| H1-2 (H1.2 linker histone, cluster member) | 0.183 | 0.254 | 0.422 | 0.0199 |
| TRIM44 (TRIM family member 44) | 0.123 | 0.393 | 0.286 | 0.0151 |
| DERL1 (derlin 1) | 0.108 | 0.474 | 0.396 | 0.0698 |
| ITPK1 (inositol-tetrakisphosphate 1-kinase) | 0.187 | 0.0905 | 0.328 | 0.0294 |
| MYL4 (myosin light chain 4) | 0.171 | 0.478 | 0.482 | 0.0486 |
| TMEM147 (transmembrane protein 147) | 0.102 | 0.594 | 0.256 | 0.094 |
| HARS2 (histidyl-tRNA synthetase 2, mitochondrial) | 0.113 | 0.38 | 0.445 | 0.00997 |
| LGALS4 (galectin 4) | 0.173 | 0.0837 | 0.279 | 0.0211 |
| TNNT3 (troponin T3, fast skeletal type) | 0.0329 | 0.11 | 0.212 | 0.0228 |
| RAX2 (retina and anterior neural fold homeobox 2) | 0.131 | 0.227 | 0.844 | 0.104 |
| RPS14 (ribosomal protein S14) | 0.0464 | 0.208 | 0.53 | 0.039 |
| TFAP2B (transcription factor AP-2 beta) | 0.0589 | 0.124 | 0.223 | 0.0124 |
| PRND (prion like protein doppel) | 0.132 | 0.654 | 0.248 | 0.0711 |
| TCL1A (TCL1 family AKT coactivator A) | 0.139 | 1.29 | 0.635 | 0.0605 |
| NDRG4 (NDRG family member 4) | 0.226 | 0.285 | 0.366 | 0.0427 |
| EEF1G (eukaryotic translation elongation factor 1 gamma) | 0.0701 | 0.0944 | 0.298 | 0.0332 |
| PIN4 (peptidylprolyl cis/trans isomerase, NIMA-interacting 4) | 0.0789 | 0.141 | 0.263 | 0.0426 |
| RNF130 (ring finger protein 130) | 0.068 | 0.179 | 0.301 | 0.00925 |
| VAV1 (vav guanine nucleotide exchange factor 1) | 0.117 | 0.283 | 0.285 | 0.0096 |
| ARPC3 (actin related protein 2/3 complex subunit 3) | 0.0803 | 0.171 | 0.228 | 0.0243 |
| GOLGA2 (golgin A2) | 0.13 | 0.0955 | 0.263 | 0.046 |
| GMNN (geminin DNA replication inhibitor) | 0.188 | 0.285 | 0.283 | 0.024 |
| DDOST | 0.138 | 0.044 | 0.227 | 0.0217 |
| CASD1 (CAS1 domain sialic acid O acetyltransferase 1) | 0.145 | 0.204 | 0.448 | 0.0263 |
| RPL37 (ribosomal protein L37) | 0.0905 | 0.148 | 0.328 | 0.0358 |
| MARK3 (microtubule affinity regulating kinase 3) | 0.138 | 0.0935 | 0.169 | 0.0188 |
| CD70 (CD70 molecule) | 0.0777 | 0.254 | 0.294 | 0.01 |
| ZNF235 (zinc finger protein 235) | 0.0951 | 0.236 | 0.279 | 0.0563 |
| AKIP1 (A-kinase interacting protein 1) | 0.149 | 0.33 | 0.557 | 0.0878 |
| EIF4G1 (eukaryotic translation initiation factor 4 gamma 1) | 0.0243 | 0.22 | 0.379 | 0.0365 |
| MT-ND4L (mitochondrially encoded NADH 4L dehydrogenase) | 0.264 | 0.716 | 0.399 | 0.042 |
| BUB1 (BUB1 mitotic checkpoint serine/threonine kinase) | 0.0887 | 0.409 | 0.368 | 0.00372 |
| KRT31 (keratin 31) | 0.101 | 0.0769 | 0.215 | 0.0184 |
| KIAA1143 | 0.137 | 0.15 | 0.402 | 0.03 |
| TUT7 (terminal uridylyl transferase 7) | 0.133 | 0.314 | 0.365 | 0.0648 |
| OXSR1 (oxidative stress responsive kinase 1) | 0.0559 | 0.0727 | 0.2 | 0.00477 |
| GNG11 (G protein subunit gamma 11) | 0.199 | 0.191 | 0.491 | 0.0248 |
| RSRC1 (arginine and serine rich coiled-coil 1) | 0.133 | 0.16 | 0.339 | 0.0519 |
| BAIAP2 (BAR/IMD domain containing adaptor protein 2) | 0.0656 | 0.153 | 0.257 | 0.00441 |
| PTPMT1 (protein tyrosine phosphatase mitochondrial 1) | 0.0858 | 0.406 | 0.294 | 0.0284 |
| PLEKHA8P1 (pleckstrin homology domain containing A8 pseudogene 1) | 0.0882 | 0.09 | 0.38 | 0.0229 |
| TXK (TXK tyrosine kinase) | 0.126 | 0.0955 | 0.335 | 0.00356 |
| CCL22 (C-C motif chemokine ligand 22) | 0.0613 | 0.477 | 0.234 | 0.0429 |
| RAD1 (RAD1 checkpoint DNA exonuclease) | 0.0715 | 0.225 | 0.252 | 0.0196 |
| FGF8 (fibroblast growth factor 8) | 0.086 | 0.11 | 0.202 | 0.0237 |
| CNTNAP3 (contactin associated protein family member 3) | 0.207 | 0.103 | 0.315 | 0.0344 |
| SLN (sarcolipin) | 0.0759 | 0.201 | 0.355 | 0.0334 |
| RIOK1 (RIO kinase 1) | 0.17 | 0.0853 | 0.512 | 0.0363 |
| CLPB (ClpB family mitochondrial disaggregase) | 0.229 | 0.288 | 0.468 | 0.0305 |
